Measured values as given in patent US7241721B2, “Biphenyl derivatives and their use as fungicides” (Syngenta Crop Protection, Inc., priority 2002, dated 2007).
Some of these results come from one statement about several compounds together. Some compounds share one range, which may span the group rather than tell each member.

Key:
Type in all cases: in vivo
Septoria tritici = assay: Action against Septoria tritici/wheat (Septoria leaf spot on wheat); settings: wheat cv. Riband, 0.2% active ingredient sprayed 1 day before inoculation, assessed 18 days after inoculation
Puccinia recondita = assay: Action against Puccinia recondita/wheat (brownrust on wheat); settings: wheat cv. Arina, 0.02% active ingredient sprayed 1 day before inoculation, assessed 10 days after inoculation
Podosphaera leucotricha = assay: Action against Podosphaera leucotricha/apple (powdery mildew on apple); settings: apple seedlings cv. McIntosh, 0.02% active ingredient sprayed 1 day before inoculation, assessed after 12 days incubation
Venturia inaegualis = assay: Action against Venturia inaegualis/apple (scab on apple); settings: apple seedlings cv. McIntosh, 0.02% active ingredient sprayed 1 day before inoculation, assessed after 4+4+4 days incubation
Erysiphe graminis = assay: Action against Erysiphe graminis/barley (powdery mildew on barley); settings: barley cv. Regina, 0.02% active ingredient sprayed 1 day before inoculation, assessed after 6 days incubation
Botrytis cinerea = assay: Action against Botrytis cinerea/tomato (Botrytis on tomatoes); settings: tomato cv. Roter Gnom, 0.02% active ingredient sprayed 2 days before inoculation, assessed after 4 days incubation
Helminthosporium teres = assay: Action against Helminthosporium teres/barley (net blotch on barley); settings: barley cv. Regina, 0.02% active ingredient sprayed 2 days before inoculation, assessed after 4 days incubation
Uncinula necator = assay: Action against Uncinula necator/grape (powdery mildew on grapes); settings: grape seedlings cv. Gutedel, 0.02% active ingredient sprayed 1 day before inoculation, assessed after 7 days incubation
Alternaria solani = assay: Action against Alternaria solani/tomato (early blight on tomatoes); settings: tomato cv. Roter Gnom, 0.02% active ingredient sprayed 2 days before inoculation, assessed after 3 days incubation

SMILES	disease incidence (Septoria tritici) [% disease incidence]	infestation (disease incidence) (Puccinia recondita)	infestation (disease incidence) (Podosphaera leucotricha)	infestation (disease incidence) (Venturia inaegualis)	infestation (disease incidence) (Erysiphe graminis)	infestation (disease incidence) (Botrytis cinerea)	infestation (disease incidence) (Helminthosporium teres)	infestation (disease incidence) (Uncinula necator)	infestation (disease incidence) (Alternaria solani)
Cn1cc(C(=S)Nc2ccccc2-c2ccc(C#C[Si](C)(C)C)cc2)c(C(F)(F)F)n1 [Compound 1.09]	< 20								
Cn1cc(C(=O)Nc2ccccc2-c2ccc(C#CCl)cc2)c(C(F)(F)F)n1 [Compound 1.12]	< 20	0-5 % infestation	0-5 % infestation	0-5 % infestation	0-5 % infestation	0-5 % infestation	0-5 % infestation	0-5 % infestation	
Cn1cc(C(=O)Nc2ccccc2-c2ccc(C#CBr)cc2)c(C(F)(F)F)n1 [Compound 1.15]		0-5 % infestation	0-5 % infestation		0-5 % infestation	0-5 % infestation	0-5 % infestation		0-5 % infestation
Cn1cc(C(=O)Nc2ccccc2-c2ccc(C#CBr)cc2)c(C(F)F)n1 [Compound 1.16]		0-5 % infestation	0-5 % infestation		0-5 % infestation	0-5 % infestation	0-5 % infestation		0-5 % infestation
Cn1cc(C(=O)Nc2ccccc2-c2ccc(C#CC(F)(F)F)cc2)c(C(F)(F)F)n1 [Compound 1.18]	< 20	0-5 % infestation	0-5 % infestation	0-5 % infestation	0-5 % infestation	0-5 % infestation	0-5 % infestation	0-5 % infestation	
C=Cc1ccc(-c2ccccc2NC(=O)c2cn(C)nc2C(F)(F)F)cc1 [Compound 1.22]		0-5 % infestation					0-5 % infestation		0-5 % infestation
C=Cc1ccc(-c2ccccc2NC(=O)c2cn(C)nc2C(F)F)cc1 [Compound 1.24]		0-5 % infestation	0-5 % infestation	0-5 % infestation	0-5 % infestation	0-5 % infestation	0-5 % infestation	0-5 % infestation	0-5 % infestation
Cn1cc(C(=O)Nc2ccccc2-c2ccc(C=C(Br)Br)cc2)c(C(F)(F)F)n1 [Compound 1.35]			0-5 % infestation		0-5 % infestation		0-5 % infestation		0-5 % infestation
Cn1cc(C(=O)Nc2ccccc2-c2ccc(C=C(Br)Br)cc2)c(C(F)F)n1 [Compound 1.36]			0-5 % infestation		0-5 % infestation	0-5 % infestation	0-5 % infestation		0-5 % infestation
C#CCc1ccc(-c2ccccc2NC(=O)c2cn(C)nc2C(F)F)cc1 [Compound 1.60]		0-5 % infestation					0-5 % infestation	0-5 % infestation	
Cn1cc(C(=O)Nc2ccccc2-c2ccc(C#CC(C)(C)C)cc2)c(C(F)(F)F)n1 [Compound 1.66]	< 20	0-5 % infestation	0-5 % infestation	0-5 % infestation	0-5 % infestation	0-5 % infestation	0-5 % infestation	0-5 % infestation	
CC#Cc1ccc(-c2ccccc2NC(=O)c2cn(C)nc2C(F)(F)F)cc1 [Compound 1.69]	< 20	0-5 % infestation		0-5 % infestation		0-5 % infestation	0-5 % infestation		0-5 % infestation
Cn1cc(C(=O)Nc2ccccc2-c2ccc([Si](C)(C)C)cc2)c(C(F)F)n1 [Compound 1.81]		0-5 % infestation	0-5 % infestation	0-5 % infestation			0-5 % infestation	0-5 % infestation	0-5 % infestation
CC(C)C#Cc1ccc(-c2ccccc2NC(=O)c2cn(C)nc2C(F)(F)F)cc1 [Compound 1.106]	< 20	0-5 % infestation	0-5 % infestation	0-5 % infestation	0-5 % infestation	0-5 % infestation	0-5 % infestation	0-5 % infestation	
COCC#Cc1ccc(-c2ccccc2NC(=O)c2cn(C)nc2C(F)(F)F)cc1 [Compound 1.138]	< 20	0-5 % infestation		0-5 % infestation		0-5 % infestation	0-5 % infestation	0-5 % infestation	
COCC#Cc1ccc(-c2ccccc2NC(=O)c2cn(C)nc2C(F)F)cc1 [Compound 1.139]	< 20	0-5 % infestation	0-5 % infestation			0-5 % infestation	0-5 % infestation	0-5 % infestation	
Cn1cc(C(=O)Nc2ccccc2-c2ccc(C=C(F)Cl)cc2)c(C(F)(F)F)n1 [Compound 1.151]	< 20	0-5 % infestation	0-5 % infestation				0-5 % infestation	0-5 % infestation	0-5 % infestation
Cn1cc(C(=O)Nc2ccccc2-c2ccc(C=C(F)Br)cc2)c(C(F)(F)F)n1 [Compound 1.154]		0-5 % infestation	0-5 % infestation	0-5 % infestation			0-5 % infestation	0-5 % infestation	0-5 % infestation
CC(=C(F)Cl)c1ccc(-c2ccccc2NC(=O)c2cn(C)nc2C(F)F)cc1 [Compound 1.182]		0-5 % infestation	0-5 % infestation				0-5 % infestation	0-5 % infestation	0-5 % infestation
CC(=C(F)Br)c1ccc(-c2ccccc2NC(=O)c2cn(C)nc2C(F)F)cc1 [Compound 1.185]		0-5 % infestation	0-5 % infestation				0-5 % infestation	0-5 % infestation	0-5 % infestation
Cn1cc(C(=O)Nc2ccccc2-c2ccc(C#CC(C)(C)O)cc2)c(C(F)(F)F)n1 [Compound 1.250]	< 20								
Cn1cc(C(=O)Nc2ccccc2-c2ccc(C#CC(C)(C)O)cc2)c(C(F)F)n1 [Compound 1.251]		0-5 % infestation	0-5 % infestation	0-5 % infestation	0-5 % infestation	0-5 % infestation	0-5 % infestation	0-5 % infestation	0-5 % infestation
C#Cc1ccc(-c2ccccc2NC(=O)c2cn(C)cc2C(F)(F)F)cc1 [Compound 2.01]		0-5 % infestation	0-5 % infestation	0-5 % infestation	0-5 % infestation	0-5 % infestation	0-5 % infestation	0-5 % infestation	0-5 % infestation
Cn1cc(C(=O)Nc2ccccc2-c2ccc(C#C[Si](C)(C)C)cc2)c(C(F)(F)F)c1 [Compound 2.08]		0-5 % infestation	0-5 % infestation	0-5 % infestation	0-5 % infestation		0-5 % infestation	0-5 % infestation	
